Laboratory results from patent publication US12648571B2 (University of Puerto Rico, priority 2020, dated 2026).
No end group written: not given here.

Experiment: peptide made by a vendor
Conditions: whole synthesis

ILGPVLGLVSDTLDDVLGILC-OH
purity (crude or final not stated): 95% purity

ILGPVLGLVSDTLDDVLGIL-OH
purity (crude or final not stated): 95% purity
